The results in this text go back to publication PMC4838861.

By UniProt entry, the sequences of proteins in these tests, tags left out.
UniProt P25515: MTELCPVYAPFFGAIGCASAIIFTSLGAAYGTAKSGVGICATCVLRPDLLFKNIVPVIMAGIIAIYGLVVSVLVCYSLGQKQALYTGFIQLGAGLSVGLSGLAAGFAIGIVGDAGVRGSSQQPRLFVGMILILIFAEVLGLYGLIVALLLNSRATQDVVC

For this test, the target named is yeast V-ATPase subunit c (S. cerevisiae) (UniProt P25515). Description: SEC; c-ring released from purified Vo with SLS and LPPG, ammonium sulfate precipitation of a and d, dialysis against DDM buffer, Superdex 200; SDS-PAGE with Coomassie or silver stain.

Results are given in words; binding and its absence hold for the method and conditions named. Some binding calls cover weakened binding; strength is not graded here.

Regarding “yeast V-ATPase subunit c (from UniProt P25515 1-160)”, the binding result is reported as “binds”.
